{"source": "PubChem BioAssay AID1259308 (NCATS, 2017)", "screen": "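Candidate targets for better recombinant protein yield in mammalian cells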 (primary screen)", "cell system": "human HEK293 embryonic kidney cells stably expressing firefly luciferase (HEK-CMV-Luc2-Hygro)", "reagents": "single siRNA against human genes, 0.8 pmol siRNA per well", "time to read-out": "72 h", "measured": "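Luciferase light (ONE-Glo) measured on one replicate plate set and viability (CellTiter-Glo) on the other, scaled to a negative control siRNA, with robust z-scores and luciferase per cell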", "direction": "total luciferase, z-score: higher = more reporter protein produced", "call rule": "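An siRNA counts as active if its total luciferase robust z-score exceeds 3; genes with two or more such siRNAs out of three were retested with fresh siRNAs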", "meaning of the calls": "active = raised luciferase; inactive = no rise", "note": "This is a random part of about 59,000 deposited reagents. Of all reagents, about 1,510 (2.6%) got an active call. 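Calls use total luciferase alone and ignore viability, so some active siRNAs may act by altering cell number.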 Entries without a mark were called inactive. Reagents against one gene are numbered here. Not all columns of the deposit are shown."}
{"target": "CCT2", "reagent": 1, "total luciferase, z-score": "3.31 (active)"}
{"target": "CCT2", "reagent": 2, "total luciferase, z-score": "4 (active)"}
{"target": "CCT2", "reagent": 3, "total luciferase, z-score": "3.26 (active)"}
{"target": "SMC3", "reagent": 1, "total luciferase, z-score": 0.289}
{"target": "SMC3", "reagent": 2, "total luciferase, z-score": -0.901}
{"target": "SMC3", "reagent": 3, "total luciferase, z-score": -0.593}
{"target": "MPP4", "reagent": 1, "total luciferase, z-score": -0.385}
{"target": "MPP4", "reagent": 2, "total luciferase, z-score": 0.231}
{"target": "MPP4", "reagent": 3, "total luciferase, z-score": 0.105}
{"target": "ZCCHC10", "reagent": 1, "total luciferase, z-score": -0.526}
{"target": "ZCCHC10", "reagent": 2, "total luciferase, z-score": 0.00599}
{"target": "ZCCHC10", "reagent": 3, "total luciferase, z-score": 0.84}
{"target": "VSIG1", "reagent": 1, "total luciferase, z-score": 0.396}
{"target": "VSIG1", "reagent": 2, "total luciferase, z-score": 0.176}
{"target": "VSIG1", "reagent": 3, "total luciferase, z-score": 1}
{"target": "NMUR1", "reagent": 1, "total luciferase, z-score": -1.13}
{"target": "NMUR1", "reagent": 2, "total luciferase, z-score": -1.8}
{"target": "NMUR1", "reagent": 3, "total luciferase, z-score": -0.0531}
{"target": "OFD1", "reagent": 1, "total luciferase, z-score": -0.256}
{"target": "OFD1", "reagent": 2, "total luciferase, z-score": -1.23}
{"target": "OFD1", "reagent": 3, "total luciferase, z-score": 0.557}
{"target": "TRIM39", "reagent": 1, "total luciferase, z-score": -1.08}
{"target": "TRIM39", "reagent": 2, "total luciferase, z-score": 0.94}
{"target": "TRIM39", "reagent": 3, "total luciferase, z-score": 1.66}
{"target": "YPEL3", "reagent": 1, "total luciferase, z-score": -0.333}
{"target": "YPEL3", "reagent": 2, "total luciferase, z-score": 0.937}
{"target": "YPEL3", "reagent": 3, "total luciferase, z-score": -0.73}
{"target": "ANKRD30A", "reagent": 1, "total luciferase, z-score": -1.49}
{"target": "ANKRD30A", "reagent": 2, "total luciferase, z-score": -0.618}
{"target": "ANKRD30A", "reagent": 3, "total luciferase, z-score": -1.28}
{"target": "LINC02875", "reagent": 1, "total luciferase, z-score": "3.66 (active)"}
{"target": "LINC02875", "reagent": 2, "total luciferase, z-score": -1.5}
{"target": "LINC02875", "reagent": 3, "total luciferase, z-score": -0.13}
